Experimental findings from publication doi:10.1101/2022.02.18.481055 are described below.

Chains of the proteins cited; added tags and fusions are not shown. Lines headed by an entry give the natural chain unless they say otherwise; changes in a name come on top.
UniProt P62820, whole entry, stated change not applied: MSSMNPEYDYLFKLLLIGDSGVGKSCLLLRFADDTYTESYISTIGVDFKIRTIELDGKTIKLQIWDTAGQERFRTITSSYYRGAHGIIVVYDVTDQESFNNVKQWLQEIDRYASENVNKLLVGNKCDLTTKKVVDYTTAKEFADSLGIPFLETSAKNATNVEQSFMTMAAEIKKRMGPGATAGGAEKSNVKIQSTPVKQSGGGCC
UniProt Q15286, whole entry: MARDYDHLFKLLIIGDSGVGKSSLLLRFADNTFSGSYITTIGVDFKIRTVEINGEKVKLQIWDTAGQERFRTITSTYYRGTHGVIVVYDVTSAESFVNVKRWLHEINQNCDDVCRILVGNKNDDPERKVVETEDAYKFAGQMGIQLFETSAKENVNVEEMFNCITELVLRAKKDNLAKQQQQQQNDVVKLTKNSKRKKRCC
UniProt P20338, whole entry, stated change not applied: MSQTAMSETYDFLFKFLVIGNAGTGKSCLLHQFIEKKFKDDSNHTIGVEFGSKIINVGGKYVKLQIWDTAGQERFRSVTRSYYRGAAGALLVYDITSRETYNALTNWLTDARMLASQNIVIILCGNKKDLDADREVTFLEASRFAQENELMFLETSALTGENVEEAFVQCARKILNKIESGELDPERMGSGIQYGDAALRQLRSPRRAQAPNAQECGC
UniProt Q9NRW1, whole entry, stated change not applied: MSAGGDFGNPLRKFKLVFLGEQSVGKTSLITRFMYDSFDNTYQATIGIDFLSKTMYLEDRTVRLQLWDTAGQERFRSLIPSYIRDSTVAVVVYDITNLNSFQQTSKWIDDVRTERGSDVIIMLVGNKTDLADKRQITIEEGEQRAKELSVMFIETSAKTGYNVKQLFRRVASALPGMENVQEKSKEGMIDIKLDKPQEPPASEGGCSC

Results are given in words; binding and its absence hold for the method and conditions named. In cells and extracts the contact can be indirect. A result given as binding can be weak or reduced; the word gives no strength.

Common to all, as to assay: co-IP
The target in test [1] is CpoS(A)-FLAG (Chlamydia trachomatis A/HAR-13).
Test [2] concerns the target CpoS(Cm)-FLAG (Chlamydia muridarum Nigg) (UniProt Q9PKG5).
For test [3], the target named is CpoS(L2)-FLAG (Chlamydia trachomatis L2/434/Bu).
The target in test [4] is EGFP-Rab1A (human) (UniProt P62820).
Test [5] concerns the target EGFP-Rab35 (human) (UniProt Q15286).
The target of test [6] is EGFP-Rab4A (human) (UniProt P20338).
The target of test [7] is EGFP-Rab6B (human) (UniProt Q9NRW1).

As to EGFP-Rab35 (from UniProt Q15286 1-201), the binding result in test [1], in test [2] and in test [3] was “binds” each time.

With CpoS(L2)-FLAG (from UniProt A0A0H3MBY4), the binding result in test [4], in test [5], in test [6] and in test [7] was “binds” throughout.

Regarding EGFP-Rab4A (from UniProt P20338 1-218), the binding result in test [1], in test [2] and in test [3] was “binds” each time.

Take EGFP-Rab5A (from UniProt P20339 1-215): in test [3], the binding entry is “no binding”.

Regarding EGFP-Rab1A (from UniProt P62820 1-205), the binding result in test [1], in test [2] and in test [3] was “binds” in each case.
